Where a name gives a salt, the structure may show the parent alone. The name of at least one read-out is uncertain.
system: isolated papillary muscle of the guinea pig; assay: Isolated papillary muscle: isometric contraction under field stimulation; assay type: cell-based; settings: at IC100, 250/min, 10 msec, 10-20 V field stimulation
Source text: However, it cannot be excluded that the dimethyl sulfoxide used as a solvent has contributed to the observed positive inotropic action.

| SMILES | Δ% = maximum decrease of the contractility [%] |
| --- | --- |
| CCOC(=O)C1=C(C)Nc2ccnc(OC(C)C)c2C1c1ccccc1C(F)(F)F (racemic) [Example 1l, ethyl (±)-1,4-dihydro-5-isopropoxy-2-methyl-4-(2-trifluoromethylphenyl)-1,6-naphthyridine-3-carboxylate] | -38 |
| COc1ccc([C@@H]2Sc3ccccc3N(CCN(C)C)C(=O)[C@@H]2OC(C)=O)cc1 [diltiazem, reference compound] | -60 |
| COC(=O)C1=C(C)Nc2ccnc(OC(C)C)c2C1c1ccccc1F (racemic) [Example 1, Methyl (±)-4-(2-fluorophenyl)-1,4-dihydro-5-isopropoxy-2-methyl-1,6-naphthyridine-3-carboxylate] | -40 |
| CCOC(=O)C1=C(C)Nc2ccnc(OC(C)CC)c2C1c1ccccc1C(F)(F)F (racemic) [Example 1p, ethyl (±)-5-sec-butoxy-1,4-dihydro-2-methyl-4-(2-trifluoromethylphenyl)-1,6-napthyridine-3-carboxylate hydrochloride] | -23 |
| CCOC(=O)C1=C(C)Nc2ccnc(OCC(C)C)c2C1c1ccccc1C(F)(F)F (racemic) [Example 1q, ethyl (±)-1,4-dihydro-5-isobutoxy-2-methyl-4-(2-trifluoromethylphenyl)-1,6-naphthyridine-3-carboxylate] | -7 |
